# Results are given in words; binding and its absence hold for the method and conditions named. In cells and extracts the contact can be indirect. A yes stands for co-enrichment or nearness to the bait. Other partners may have been found.
# By UniProt entry, the sequences of proteins in these tests, tags left out. Residues count along the entry.
# UniProt P63104, residues 1-230: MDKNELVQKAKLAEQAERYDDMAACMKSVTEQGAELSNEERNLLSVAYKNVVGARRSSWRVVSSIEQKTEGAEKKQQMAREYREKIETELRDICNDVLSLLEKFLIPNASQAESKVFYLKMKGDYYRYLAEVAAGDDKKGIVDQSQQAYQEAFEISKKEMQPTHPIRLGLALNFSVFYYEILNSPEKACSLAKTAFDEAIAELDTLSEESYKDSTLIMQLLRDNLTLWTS
# UniProt Q9UHD2: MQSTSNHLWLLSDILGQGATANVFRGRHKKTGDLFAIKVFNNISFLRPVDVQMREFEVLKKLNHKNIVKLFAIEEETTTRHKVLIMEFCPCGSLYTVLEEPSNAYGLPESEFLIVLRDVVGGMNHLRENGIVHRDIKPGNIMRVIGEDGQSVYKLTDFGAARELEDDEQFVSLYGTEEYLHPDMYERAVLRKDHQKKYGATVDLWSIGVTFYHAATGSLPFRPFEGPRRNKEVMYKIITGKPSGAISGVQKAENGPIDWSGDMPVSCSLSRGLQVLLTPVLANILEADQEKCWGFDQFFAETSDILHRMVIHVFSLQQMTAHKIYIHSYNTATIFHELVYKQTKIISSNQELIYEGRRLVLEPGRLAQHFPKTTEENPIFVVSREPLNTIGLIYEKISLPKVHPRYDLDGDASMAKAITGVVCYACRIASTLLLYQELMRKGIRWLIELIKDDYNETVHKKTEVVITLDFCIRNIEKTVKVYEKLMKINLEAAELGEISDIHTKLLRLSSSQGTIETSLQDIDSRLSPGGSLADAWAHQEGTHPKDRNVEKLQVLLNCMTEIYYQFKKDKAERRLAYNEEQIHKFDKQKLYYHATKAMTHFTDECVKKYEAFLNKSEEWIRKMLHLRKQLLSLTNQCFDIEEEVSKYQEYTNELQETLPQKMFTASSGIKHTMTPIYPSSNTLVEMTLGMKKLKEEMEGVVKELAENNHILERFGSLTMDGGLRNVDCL
# UniProt Q07812: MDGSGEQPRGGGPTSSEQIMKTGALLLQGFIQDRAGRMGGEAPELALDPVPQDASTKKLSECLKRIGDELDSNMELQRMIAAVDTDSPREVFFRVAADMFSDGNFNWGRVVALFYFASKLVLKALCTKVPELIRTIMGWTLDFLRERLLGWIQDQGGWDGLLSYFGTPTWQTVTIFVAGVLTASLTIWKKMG
# UniProt P08670: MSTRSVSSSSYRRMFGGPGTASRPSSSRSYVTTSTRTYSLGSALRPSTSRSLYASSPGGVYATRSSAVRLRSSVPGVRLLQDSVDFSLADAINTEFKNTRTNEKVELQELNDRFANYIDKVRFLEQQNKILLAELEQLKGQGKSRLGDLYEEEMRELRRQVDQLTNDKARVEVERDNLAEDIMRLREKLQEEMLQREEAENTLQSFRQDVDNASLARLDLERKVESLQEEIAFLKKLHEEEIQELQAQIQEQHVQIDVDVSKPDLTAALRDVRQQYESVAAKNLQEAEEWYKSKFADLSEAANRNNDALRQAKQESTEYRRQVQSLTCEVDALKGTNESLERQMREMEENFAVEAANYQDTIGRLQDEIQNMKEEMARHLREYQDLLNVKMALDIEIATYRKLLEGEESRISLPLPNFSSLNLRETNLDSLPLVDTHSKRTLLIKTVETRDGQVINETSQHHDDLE
# UniProt Q96SW2: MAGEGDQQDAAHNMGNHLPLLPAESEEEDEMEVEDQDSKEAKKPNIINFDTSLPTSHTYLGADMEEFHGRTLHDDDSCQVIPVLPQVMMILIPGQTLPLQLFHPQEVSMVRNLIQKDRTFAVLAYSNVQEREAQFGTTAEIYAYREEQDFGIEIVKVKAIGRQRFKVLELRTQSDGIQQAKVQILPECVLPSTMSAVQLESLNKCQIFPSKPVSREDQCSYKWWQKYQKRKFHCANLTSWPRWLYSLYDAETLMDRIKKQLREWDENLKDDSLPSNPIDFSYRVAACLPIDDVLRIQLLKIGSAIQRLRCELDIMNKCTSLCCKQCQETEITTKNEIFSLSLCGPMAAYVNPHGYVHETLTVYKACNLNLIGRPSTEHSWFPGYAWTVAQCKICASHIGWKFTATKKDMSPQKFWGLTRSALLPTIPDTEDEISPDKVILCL
# UniProt O96013: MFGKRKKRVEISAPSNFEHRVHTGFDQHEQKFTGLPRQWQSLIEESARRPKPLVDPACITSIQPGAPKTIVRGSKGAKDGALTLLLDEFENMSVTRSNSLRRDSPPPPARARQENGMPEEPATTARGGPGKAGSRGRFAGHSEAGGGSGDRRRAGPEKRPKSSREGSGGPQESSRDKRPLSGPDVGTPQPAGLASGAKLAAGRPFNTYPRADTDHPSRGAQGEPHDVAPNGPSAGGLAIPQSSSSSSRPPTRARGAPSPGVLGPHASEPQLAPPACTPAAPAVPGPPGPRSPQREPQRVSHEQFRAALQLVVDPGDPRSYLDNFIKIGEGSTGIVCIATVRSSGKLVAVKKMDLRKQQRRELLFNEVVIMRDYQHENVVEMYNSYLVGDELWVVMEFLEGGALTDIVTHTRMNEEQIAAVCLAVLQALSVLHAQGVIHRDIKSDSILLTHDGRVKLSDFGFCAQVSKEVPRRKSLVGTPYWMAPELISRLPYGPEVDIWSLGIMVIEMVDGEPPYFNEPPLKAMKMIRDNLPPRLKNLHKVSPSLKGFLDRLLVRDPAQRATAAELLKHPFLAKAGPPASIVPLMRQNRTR
# Experiments:
# 14-3-3ζ WT (human) = 14-3-3ζ WT (human) (UniProt P63104); test: affinity purification with mass spectrometry; 14-3-3ζ (WT, pSer58, nhpSer58) covalently coupled to NHS-Sepharose, incubated with HEK293T lysate 2 h at 25 °C (50 mM Tris pH 7.5, 150 mM NaCl, 50 nM Calyculin A), washed with 350 mM NaCl, eluted with 6 M guanidine-HCl; label-free quantitative MS; only the target purified
# 14-3-3ζ pSer58 (human) = 14-3-3ζ pSer58 (human) (UniProt P63104); test: as above
Substance,binding (14-3-3ζ WT (human)),binding (14-3-3ζ pSer58 (human))
TBK1 (from UniProt Q9UHD2 1-729),binds,–
BAX (from UniProt Q07812 1-192),binds,–
vimentin (from UniProt P08670 1-466),binds,–
"cereblon (CRBN), endogenous (from UniProt Q96SW2 1-442)",–,binds
PAK4 (from UniProt O96013 1-591),binds,–
